Assay results from patent US20040048866A1 (priority 2002, published 2004).

Molecular target: T1, α1 and β1 subunits of guanylate cyclase (sGC), expressed in Sf9 cells (Homo sapiens, UniProt Q02108+Q02153)
T1 construct: made in house; host or cells: Sf9 insect cells (baculovirus co-infection); high-speed supernatant used unpurified
T1 sequence (Q02108 1-690): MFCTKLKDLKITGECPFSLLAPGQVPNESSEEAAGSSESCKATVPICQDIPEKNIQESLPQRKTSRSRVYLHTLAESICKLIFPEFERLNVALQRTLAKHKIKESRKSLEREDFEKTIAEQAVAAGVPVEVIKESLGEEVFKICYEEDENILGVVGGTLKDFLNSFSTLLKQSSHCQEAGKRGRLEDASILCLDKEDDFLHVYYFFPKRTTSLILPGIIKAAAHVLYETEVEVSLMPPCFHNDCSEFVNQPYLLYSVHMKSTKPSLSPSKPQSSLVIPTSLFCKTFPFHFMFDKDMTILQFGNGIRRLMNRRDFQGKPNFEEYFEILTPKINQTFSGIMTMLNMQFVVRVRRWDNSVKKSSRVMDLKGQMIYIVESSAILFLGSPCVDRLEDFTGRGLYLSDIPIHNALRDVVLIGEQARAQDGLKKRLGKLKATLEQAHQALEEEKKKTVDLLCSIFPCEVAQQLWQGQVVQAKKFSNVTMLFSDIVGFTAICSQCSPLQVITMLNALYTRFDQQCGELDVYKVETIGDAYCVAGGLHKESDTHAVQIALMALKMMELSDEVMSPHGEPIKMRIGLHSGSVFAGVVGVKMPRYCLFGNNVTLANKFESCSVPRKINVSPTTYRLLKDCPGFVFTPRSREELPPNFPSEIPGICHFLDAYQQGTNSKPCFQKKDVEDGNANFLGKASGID
T1 sequence (Q02153 1-619): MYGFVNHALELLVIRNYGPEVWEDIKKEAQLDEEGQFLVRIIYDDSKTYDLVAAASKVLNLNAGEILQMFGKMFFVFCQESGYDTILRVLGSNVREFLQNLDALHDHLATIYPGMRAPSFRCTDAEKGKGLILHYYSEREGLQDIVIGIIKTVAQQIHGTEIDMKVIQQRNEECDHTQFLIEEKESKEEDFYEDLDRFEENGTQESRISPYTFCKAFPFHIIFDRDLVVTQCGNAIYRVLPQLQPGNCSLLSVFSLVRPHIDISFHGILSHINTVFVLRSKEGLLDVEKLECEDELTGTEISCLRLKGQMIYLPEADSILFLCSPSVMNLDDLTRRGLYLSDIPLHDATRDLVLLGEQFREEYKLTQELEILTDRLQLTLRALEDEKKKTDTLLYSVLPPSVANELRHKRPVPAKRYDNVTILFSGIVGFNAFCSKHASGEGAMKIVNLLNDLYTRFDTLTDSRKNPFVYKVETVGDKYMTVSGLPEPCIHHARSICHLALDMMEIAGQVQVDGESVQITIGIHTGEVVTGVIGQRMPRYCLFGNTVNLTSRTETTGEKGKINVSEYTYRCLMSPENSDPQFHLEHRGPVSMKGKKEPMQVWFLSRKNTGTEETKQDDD
Assay: Guanylate Cyclase Assay (formation of cyclic GMP from GTP)
Type: biochemical
Method: Sf9 cells were cultured in Sf-90011 medium supplemented with 10% (v/v) fetal calf serum at 28° C. to give a count of 6×10^5 cells/ml. The cells were then infected with a mixture of the virus stocks for the α1 and β1 subunits of guanylate cyclase at a multiplicity of infection of 0.1 pfu/cell. The cells were harvested 72 hours after infection and were pelleted by centrifugation. The resulting cell pellets were homogenized with Polytron homogenizer in 3 volumes of 20 mM Tris-HCl (pH 7.6) containing 1 mM EDTA, 5 mM dithiothreitol, 90 mM NaCl, 10% glycerol, and protease inhibitors mix (Roche Molecular Biochemicals). The homogenate was centrifuged at 50,000×g for 60 minutes and the supernatant was aliquotted and stored at −80° C.
Compounds of the present invention were dissolved in DMSO to make 100 mM and saved as stocks at −20° C. When compounds were tested, 10-fold concentrated solutions with 10% DMSO were prepared. 10 μl of 10-fold concentrated compound solutions were added to the reaction mixture total of 100 μl.
Guanylate cyclase activity was measured by the formation of cyclic GMP from GTP in a total volume of 100 μl. Guanylate cyclase-expressed Sf9 cell high-speed supernatant (Sf9 high-speed sup) was used as an enzyme source for the assay. […] The solution was centrifuged at 3000 rpm for 15 minutes at room temperature and cyclic GMP in 20 μl of the resulting supernatant was measured according to the protocol of Amersham cyclic GMP enzymeimmunoassay system (Amersham, RPN 226).
Compounds of the present invention were tested at 100 μM with and without 1 μM of sodium nitroprusside (SNP). […] Mean basal efficacy, in Table 1, was expressed as a percentage of 100 μM YC-1 (without SNP).
The mean activation, in Table 1, was calculated based on the formula: (activity of compound of the present invention at 100 μM with 1 μM SNP)−(activity of compound of on at 100 μM)/(activity of SNP at 1 μM)−(basal activity of sGC).

O=C(NCCCCO)c1ccc(Oc2nn(Cc3ccccc3)c3ccccc23)o1 [Example 6, 5-[(1-benzyl-1H-indazol-3-yl)oxy]-N-(4-hydroxybutyl)-2-furamide]
Mean activation at 100 μM ((activity at 100 μM with 1 μM SNP − activity at 100 μM)/(activity of SNP at 1 μM − basal activity of sGC)): 2.5
Mean efficacy at 100 μM with 1 μM of SNP, [% of YC-1] (compound at 100 μM with 1 μM sodium nitroprusside (SNP), normalized to 100 μM YC-1 (without SNP) as 100%): 18 % of YC-1
Emax at 100 µM (compound at 100 μM without SNP, normalized to activity of 100 μM YC-1 (without SNP) as 100%, read-out: Mean basal efficacy at 100 μM, [% of YC-1]): 3%
